# PubChem BioAssay AID504804 – Drosophila RNAi Screening Center – 2011
# Screen: 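Fly genes whose loss lessens doxorubicin-driven cell death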 (primary screen)
# System: Drosophila Kc cells
# Knock-down reagent: long dsRNA against Drosophila genes, 0.5 µg dsRNA per well
# Duration: 96 h (48 h knock-down, then 48 h drug)
# Treatment: doxorubicin 5 µg/ml for 48 h, added 48 h after dsRNA
# Read-out: 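Viability measured as cellular ATP by luminescence after 48 h knock-down then 48 h doxorubicin at 5 µg/ml; unnormalised plate counts for each replicate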
# Direction: raw ATP luminescence: higher = more viable cells, protection from doxorubicin
# Rule for the call: 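z-score of 2 or more over plate mean in both duplicates, retained only when retests and separate dsRNAs confirm the protection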
# In all, the deposit lists about 19,000 reagents; below is a random part of those that have a named target and a result. Of all reagents, 47 (0.25%) were called active. 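Signals are raw, not normalised; exact z-scores behind calls not deposited; actives needed confirmation, so some wells reaching 2 SD are inactive.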 Names joined by + are all predicted targets of the reagent.
gene knocked down,amplicon,"raw ATP luminescence, replicate 1","raw ATP luminescence, replicate 2",activity call
Sin3A,DRSC07552,54080,50580,inactive
dao,DRSC01960,73287,73897,inactive
CG14401,DRSC02385,63663,56867,inactive
Rb97D,DRSC16815,27380,29720,inactive
CG17959,DRSC18142,63800,62480,inactive
CG10646,DRSC09764,1.39e5,1.34e5,inactive
CG3817,DRSC15515,56817,34927,inactive
Sgt,DRSC02812,80543,60637,inactive
rad50,DRSC04523,62753,58927,inactive
CG6443,DRSC02958,53363,37820,inactive
hyd,DRSC16971,48800,53690,inactive
Ran-like,DRSC10918,26697,23900,inactive
tws,DRSC12767,68733,70990,inactive
tws,DRSC17092,83663,37520,inactive
CG14160,DRSC10161,55113,59537,inactive
Pfdn6,DRSC10915,79220,65173,inactive
cpx,DRSC11999,61557,54237,inactive
lap,DRSC12628,52863,25120,inactive
CG17544,DRSC02624,1.19e5,70407,inactive
igl,DRSC07631,55457,82630,inactive
ND-ASHI,DRSC18291,31160,49780,inactive
Tps1,DRSC00269,1.25e5,76337,inactive
corto,DRSC12375,51420,41760,inactive
COX7A,DRSC16514,55617,51557,inactive
Tango11,DRSC03890,52057,38897,inactive
Tango11,DRSC03892,66220,52673,inactive
CG3847,DRSC17444,2.04e5,2.11e5,inactive
Nlg4,DRSC15108,38270,41590,inactive
Nlg4,DRSC15109,45720,41950,inactive
Nlg4,DRSC15700,32000,31310,inactive
Nlg4,DRSC15701,13150,15270,inactive
Prp3,DRSC10912,68520,64340,inactive
CG42818 + Ca-Ma2d,DRSC01963,54263,61447,inactive
mir-210 (retired record),DRSC19230,2.19e5,2.18e5,inactive
CG3165,DRSC00573,1.12e5,67097,inactive
CG18649,DRSC10334,82923,52480,inactive
Xport-A + Xport-B,DRSC15586,36543,45770,inactive
CG34323,DRSC18916,1.62e5,1.60e5,inactive
CG11927,DRSC00337,1.06e5,79633,inactive
His3.3A,DRSC03343,23230,26817,inactive
Arms,DRSC03856,74703,62567,inactive
Arms,DRSC03857,71947,61067,inactive
Arms,DRSC04052,62397,53517,inactive
Arms,DRSC04256,51767,54190,inactive
CG13836 (retired record),DRSC14686,66150,64430,inactive
CG9389,DRSC11857,16920,16867,inactive
Tapdelta,DRSC05946,53710,39250,inactive
CG12522,DRSC09088,1.55e5,1.19e5,inactive
Dhc16F,DRSC20242,3.67e5,3.14e5,inactive
CG12769,DRSC06167,61060,51530,inactive
CG15263,DRSC01974,75450,74487,inactive
Cpr65Az,DRSC09882,71507,84560,inactive
l(1)G0020,DRSC18198,52600,58490,inactive
CG31496,DRSC12547,2.07e5,2.28e5,inactive
Or43b,DRSC07486,34787,71530,inactive
betaNACtes2,DRSC19792,3.27e5,3.22e5,inactive
Dscam1,DRSC05047,90640,85967,inactive
Dscam1,DRSC05048,82990,78663,inactive
Dscam1,DRSC07407,57457,74037,inactive
CG13001,DRSC19520,3.83e5,2.76e5,inactive
Acbp1,DRSC03093,51467,76723,inactive
Cln7,DRSC11005,32013,32047,inactive
CG4622,DRSC04479,63410,53540,inactive
CG42337,DRSC11686,63180,51567,inactive
CG42337,DRSC11687,27723,31270,inactive
CG4806,DRSC04491,53060,58317,inactive
CG32053,DRSC10683,35663,41897,inactive
CG14659,DRSC12245,58193,50057,inactive
CG7906,DRSC10928,24663,23533,inactive
CG14720,DRSC14942,51633,66397,inactive
CG1236,DRSC12203,46680,15607,inactive
tfc,DRSC07953,1.54e5,1.61e5,inactive
tfc,DRSC07954,1.37e5,1.52e5,inactive
tfc,DRSC08626,60223,68063,inactive
wds,DRSC18852,38880,39320,inactive
Gr32a,DRSC02400,50817,80920,inactive
CG14995,DRSC08452,33697,28160,inactive
Golgin97,DRSC06895,57017,65107,inactive
Hsp68,DRSC16712,73890,65180,inactive
Rat1,DRSC02044,1.13e5,69693,inactive
Or33b,DRSC03387,57670,71553,inactive
CG14739,DRSC14959,31610,57110,inactive
Iris,DRSC00663,96127,70170,inactive
Ir94g,DRSC15231,63280,60730,inactive
